In the supplement of paper PMC9671908:
Structures can show the parent of a compound that is named as a salt. This is one part of the list. Most values come without repeats; read them as rough.

Assays:
MIA PaCa-2 parental = experiment: parental cell viability relative to untreated parental control; higher = more surviving cells; conditions: treatment time: 9 days
MIA PaCa-2 persister = experiment: persister cell viability relative to untreated persister control; higher = more surviving persister cells; conditions: treatment time: 9 days; cell state: persister (100 nM gemcitabine + 100 nM Torin1)

| SMILES | parental cell viability (MIA PaCa-2 parental) [%] | persister cell viability (MIA PaCa-2 persister) [%] |
| --- | --- | --- |
| Cc1nn(C)c(COc2ccc(N3CCN(S(=O)(=O)N(C)C)CC3)cc2)c1-c1cccc2c(CCCOc3cccc4ccccc34)c(C(=O)O)n(CCN3CCOCC3)c12 (inhibitor concentration: 10µM) | 80 | 25 |
| Cn1cc(-c2ccc3c(c2)CCN3C(=O)Cc2cccc(C(F)(F)F)c2)c2c(N)ncnc21 (inhibitor concentration: 300nM) | 110 | 94 |
| COc1cccc(OCCCN)c1-c1cc(Nc2cnc(C#N)cn2)n[nH]1 [Prexasertib HCl] (inhibitor concentration: 10nM) | 95 | 2 |
| CC(C)CCN1c2nc(Nc3cc(F)c(O)c(F)c3)ncc2N(C)C(=O)C1C (stereo not drawn) (inhibitor concentration: 1µM) | 100 | 170 |
| CC(C)NC[C@@H](C(=O)N1CCN(c2ncnc3c2[C@H](C)C[C@H]3O)CC1)c1ccc(Cl)cc1 (inhibitor concentration: 30µM) | 79.5 | 98.5 |
| CN(C)c1nc(N(C)C)nc(N(C)C)n1 [Altretamine] (inhibitor concentration: 10µM) | 98 | 99.5 |
| N[C@@H]1CCCN(c2c(/C=C3\SC(=O)NC3=O)cccc2-c2ccccc2)C1 (inhibitor concentration: 30µM) | 103 | 94 |
| CCN1CCN(Cc2ccc(Nc3ncc(F)c(-c4cc(F)c5nc(C)n(C(C)C)c5c4)n3)nc2)CC1 [Abemaciclib] (inhibitor concentration: 300nM) | 98 | 200 |
| CC(C)c1c(-c2ccccc2)nc2c(C#N)c[nH]n2c1=O (inhibitor concentration: 30µM) | 104 | 95 |

Whole records, looked up by structure. Values in the order: parental cell viability (MIA PaCa-2 parental) [%]	persister cell viability (MIA PaCa-2 persister) [%]
`COc1cccc(OCCCN)c1-c1cc(Nc2cnc(C#N)cn2)n[nH]1` [Prexasertib HCl] (inhibitor concentration: 10nM) is entered as 95	2
`Cc1nn(C)c(COc2ccc(N3CCN(S(=O)(=O)N(C)C)CC3)cc2)c1-c1cccc2c(CCCOc3cccc4ccccc34)c(C(=O)O)n(CCN3CCOCC3)c12` (inhibitor concentration: 10µM) is entered as 80	25
